# The list shows a part of the results.
# By UniProt entry, the sequences of proteins in these tests, tags left out. Where a name states a change or a piece, a line headed by the entry shows the natural chain unless it says otherwise.
# UniProt P19474, whole entry, looked up: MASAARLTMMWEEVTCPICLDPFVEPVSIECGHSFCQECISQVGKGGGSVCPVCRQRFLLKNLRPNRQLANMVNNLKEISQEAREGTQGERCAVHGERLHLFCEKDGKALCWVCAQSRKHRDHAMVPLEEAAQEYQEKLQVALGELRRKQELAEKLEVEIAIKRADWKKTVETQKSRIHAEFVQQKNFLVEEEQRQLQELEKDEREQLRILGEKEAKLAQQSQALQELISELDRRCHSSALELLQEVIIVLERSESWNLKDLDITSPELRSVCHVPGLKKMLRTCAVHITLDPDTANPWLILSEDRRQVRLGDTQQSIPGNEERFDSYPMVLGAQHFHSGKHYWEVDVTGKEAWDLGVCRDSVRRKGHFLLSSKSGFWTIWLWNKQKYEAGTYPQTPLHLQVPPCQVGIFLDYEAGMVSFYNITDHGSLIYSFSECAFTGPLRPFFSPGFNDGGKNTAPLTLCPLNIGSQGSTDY
# UniProt Q15035: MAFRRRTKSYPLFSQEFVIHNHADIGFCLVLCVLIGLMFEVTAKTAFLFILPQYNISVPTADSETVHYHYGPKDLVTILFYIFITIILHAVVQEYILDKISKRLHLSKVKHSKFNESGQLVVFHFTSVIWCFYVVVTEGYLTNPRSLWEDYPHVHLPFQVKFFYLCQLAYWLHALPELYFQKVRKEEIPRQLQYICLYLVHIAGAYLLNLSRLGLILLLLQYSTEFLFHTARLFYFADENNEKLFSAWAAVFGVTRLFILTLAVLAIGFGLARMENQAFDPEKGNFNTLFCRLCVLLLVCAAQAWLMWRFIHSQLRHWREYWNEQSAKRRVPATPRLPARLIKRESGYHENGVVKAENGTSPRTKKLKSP
# UniProt Q9UKE5: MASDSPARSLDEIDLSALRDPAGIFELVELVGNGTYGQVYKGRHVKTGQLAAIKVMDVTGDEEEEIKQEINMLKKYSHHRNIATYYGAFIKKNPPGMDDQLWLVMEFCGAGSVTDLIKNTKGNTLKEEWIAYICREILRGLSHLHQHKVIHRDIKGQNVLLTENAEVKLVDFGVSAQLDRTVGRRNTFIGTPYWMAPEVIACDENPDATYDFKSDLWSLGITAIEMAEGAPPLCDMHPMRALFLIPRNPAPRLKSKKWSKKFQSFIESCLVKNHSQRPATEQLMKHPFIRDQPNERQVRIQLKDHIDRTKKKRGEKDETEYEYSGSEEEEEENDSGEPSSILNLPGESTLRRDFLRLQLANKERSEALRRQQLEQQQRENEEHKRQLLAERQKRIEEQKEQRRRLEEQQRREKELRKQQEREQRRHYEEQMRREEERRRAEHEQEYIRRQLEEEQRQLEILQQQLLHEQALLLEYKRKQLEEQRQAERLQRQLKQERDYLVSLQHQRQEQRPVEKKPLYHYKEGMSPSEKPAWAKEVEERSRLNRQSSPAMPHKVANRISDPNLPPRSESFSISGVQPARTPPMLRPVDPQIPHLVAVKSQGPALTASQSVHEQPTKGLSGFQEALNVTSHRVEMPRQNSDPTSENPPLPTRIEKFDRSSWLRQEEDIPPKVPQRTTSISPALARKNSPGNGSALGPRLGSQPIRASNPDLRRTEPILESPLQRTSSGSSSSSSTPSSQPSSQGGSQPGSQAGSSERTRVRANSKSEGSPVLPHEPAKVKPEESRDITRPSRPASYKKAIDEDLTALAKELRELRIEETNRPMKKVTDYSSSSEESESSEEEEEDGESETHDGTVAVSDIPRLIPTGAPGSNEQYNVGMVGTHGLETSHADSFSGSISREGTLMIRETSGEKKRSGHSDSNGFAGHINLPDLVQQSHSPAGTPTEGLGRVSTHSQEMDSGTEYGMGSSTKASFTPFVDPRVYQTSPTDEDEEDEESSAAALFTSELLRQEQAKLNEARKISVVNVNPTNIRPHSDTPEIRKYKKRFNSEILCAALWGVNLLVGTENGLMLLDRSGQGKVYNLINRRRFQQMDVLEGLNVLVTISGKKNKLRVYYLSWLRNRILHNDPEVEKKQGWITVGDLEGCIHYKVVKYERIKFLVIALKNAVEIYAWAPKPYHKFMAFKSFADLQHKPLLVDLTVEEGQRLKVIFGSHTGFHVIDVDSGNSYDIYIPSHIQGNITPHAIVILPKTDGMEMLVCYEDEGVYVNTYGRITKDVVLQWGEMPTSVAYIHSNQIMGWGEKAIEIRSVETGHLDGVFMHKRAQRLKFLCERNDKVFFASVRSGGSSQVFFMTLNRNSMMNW
# UniProt Q14669: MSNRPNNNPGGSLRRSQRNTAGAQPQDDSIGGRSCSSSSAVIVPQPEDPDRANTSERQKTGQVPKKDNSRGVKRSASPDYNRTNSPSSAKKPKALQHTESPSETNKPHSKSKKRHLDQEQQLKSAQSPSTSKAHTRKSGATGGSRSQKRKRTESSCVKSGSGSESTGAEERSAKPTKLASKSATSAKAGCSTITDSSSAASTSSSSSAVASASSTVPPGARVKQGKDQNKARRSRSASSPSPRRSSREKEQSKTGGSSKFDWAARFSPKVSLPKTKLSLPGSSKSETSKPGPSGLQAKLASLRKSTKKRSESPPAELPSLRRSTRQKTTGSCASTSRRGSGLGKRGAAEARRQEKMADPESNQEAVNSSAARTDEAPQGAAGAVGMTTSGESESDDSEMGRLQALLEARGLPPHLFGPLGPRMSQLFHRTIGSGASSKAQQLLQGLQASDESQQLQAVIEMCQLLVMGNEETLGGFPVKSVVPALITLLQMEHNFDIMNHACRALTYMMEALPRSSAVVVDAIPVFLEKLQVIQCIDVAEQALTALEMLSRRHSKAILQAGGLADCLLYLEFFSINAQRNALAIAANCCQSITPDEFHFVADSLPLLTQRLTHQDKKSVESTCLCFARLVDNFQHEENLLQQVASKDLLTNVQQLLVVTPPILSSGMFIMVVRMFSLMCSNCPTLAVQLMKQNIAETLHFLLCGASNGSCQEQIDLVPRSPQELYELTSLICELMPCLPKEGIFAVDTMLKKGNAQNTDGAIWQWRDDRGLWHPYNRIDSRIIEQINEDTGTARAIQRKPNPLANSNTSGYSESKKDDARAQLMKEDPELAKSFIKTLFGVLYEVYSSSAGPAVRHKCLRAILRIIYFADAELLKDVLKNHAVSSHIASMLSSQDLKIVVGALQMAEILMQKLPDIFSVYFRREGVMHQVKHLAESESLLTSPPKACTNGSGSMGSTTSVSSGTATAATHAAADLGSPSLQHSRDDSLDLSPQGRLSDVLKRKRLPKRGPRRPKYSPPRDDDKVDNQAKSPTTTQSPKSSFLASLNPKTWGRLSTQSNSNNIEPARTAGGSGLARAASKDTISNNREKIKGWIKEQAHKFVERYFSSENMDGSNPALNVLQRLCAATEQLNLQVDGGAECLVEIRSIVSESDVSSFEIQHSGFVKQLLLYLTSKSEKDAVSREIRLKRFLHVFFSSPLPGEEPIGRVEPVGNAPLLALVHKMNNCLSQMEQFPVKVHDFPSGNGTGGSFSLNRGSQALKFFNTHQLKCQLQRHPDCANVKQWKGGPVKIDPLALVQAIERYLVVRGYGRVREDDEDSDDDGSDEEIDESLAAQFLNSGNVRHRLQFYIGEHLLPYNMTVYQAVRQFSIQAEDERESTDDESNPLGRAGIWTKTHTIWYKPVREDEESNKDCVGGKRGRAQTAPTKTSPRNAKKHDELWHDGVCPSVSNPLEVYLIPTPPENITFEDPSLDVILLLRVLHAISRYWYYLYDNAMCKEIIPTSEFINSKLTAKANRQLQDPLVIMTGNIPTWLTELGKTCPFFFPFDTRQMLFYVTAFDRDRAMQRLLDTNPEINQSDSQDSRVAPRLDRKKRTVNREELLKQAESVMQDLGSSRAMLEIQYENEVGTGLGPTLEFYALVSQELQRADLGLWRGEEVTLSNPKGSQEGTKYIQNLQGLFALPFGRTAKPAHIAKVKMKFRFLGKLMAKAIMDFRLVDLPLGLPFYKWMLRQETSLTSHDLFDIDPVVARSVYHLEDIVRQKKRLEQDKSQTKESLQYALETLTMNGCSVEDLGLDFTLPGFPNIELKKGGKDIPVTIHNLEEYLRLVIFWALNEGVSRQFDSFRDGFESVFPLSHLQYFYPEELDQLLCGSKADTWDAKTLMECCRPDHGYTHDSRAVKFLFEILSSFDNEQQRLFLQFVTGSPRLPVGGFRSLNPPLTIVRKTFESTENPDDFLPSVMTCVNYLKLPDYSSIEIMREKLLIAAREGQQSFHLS
# UniProt Q32P41: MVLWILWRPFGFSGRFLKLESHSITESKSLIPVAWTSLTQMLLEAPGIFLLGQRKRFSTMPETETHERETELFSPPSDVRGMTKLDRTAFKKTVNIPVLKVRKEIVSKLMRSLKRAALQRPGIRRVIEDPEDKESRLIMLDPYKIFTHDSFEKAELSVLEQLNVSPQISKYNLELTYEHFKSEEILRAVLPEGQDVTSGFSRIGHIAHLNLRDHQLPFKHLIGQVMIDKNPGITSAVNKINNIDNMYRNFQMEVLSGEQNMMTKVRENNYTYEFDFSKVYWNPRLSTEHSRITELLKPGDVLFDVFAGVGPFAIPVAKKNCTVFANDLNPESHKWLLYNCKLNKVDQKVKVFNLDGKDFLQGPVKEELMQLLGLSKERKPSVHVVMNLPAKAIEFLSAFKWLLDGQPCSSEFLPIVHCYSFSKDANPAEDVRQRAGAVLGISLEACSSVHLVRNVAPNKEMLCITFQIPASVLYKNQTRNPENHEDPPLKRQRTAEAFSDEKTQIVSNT
# UniProt Q86W33: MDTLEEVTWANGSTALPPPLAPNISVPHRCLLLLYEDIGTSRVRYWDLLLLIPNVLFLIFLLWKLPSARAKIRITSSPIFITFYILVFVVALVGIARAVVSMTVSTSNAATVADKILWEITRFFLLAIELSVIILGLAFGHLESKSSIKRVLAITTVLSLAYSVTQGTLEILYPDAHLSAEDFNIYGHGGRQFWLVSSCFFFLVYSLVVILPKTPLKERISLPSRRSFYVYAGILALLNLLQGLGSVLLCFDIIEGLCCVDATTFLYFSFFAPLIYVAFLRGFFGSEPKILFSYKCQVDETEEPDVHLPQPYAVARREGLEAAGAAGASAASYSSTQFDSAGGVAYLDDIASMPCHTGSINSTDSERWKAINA
# UniProt Q9C035: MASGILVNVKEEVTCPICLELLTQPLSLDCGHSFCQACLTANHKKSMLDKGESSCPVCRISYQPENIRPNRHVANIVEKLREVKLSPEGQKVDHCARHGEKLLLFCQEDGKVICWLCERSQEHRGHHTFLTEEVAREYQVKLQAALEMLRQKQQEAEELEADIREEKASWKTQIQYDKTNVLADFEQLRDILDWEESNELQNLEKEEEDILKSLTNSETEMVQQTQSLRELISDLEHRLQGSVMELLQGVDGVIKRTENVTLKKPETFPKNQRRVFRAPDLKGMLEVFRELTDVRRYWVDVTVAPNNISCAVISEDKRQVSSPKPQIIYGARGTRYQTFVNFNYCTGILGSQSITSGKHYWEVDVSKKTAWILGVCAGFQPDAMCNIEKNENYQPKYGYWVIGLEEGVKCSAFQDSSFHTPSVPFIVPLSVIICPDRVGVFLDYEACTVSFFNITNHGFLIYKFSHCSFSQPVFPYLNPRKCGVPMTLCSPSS
# UniProt Q8TDR0: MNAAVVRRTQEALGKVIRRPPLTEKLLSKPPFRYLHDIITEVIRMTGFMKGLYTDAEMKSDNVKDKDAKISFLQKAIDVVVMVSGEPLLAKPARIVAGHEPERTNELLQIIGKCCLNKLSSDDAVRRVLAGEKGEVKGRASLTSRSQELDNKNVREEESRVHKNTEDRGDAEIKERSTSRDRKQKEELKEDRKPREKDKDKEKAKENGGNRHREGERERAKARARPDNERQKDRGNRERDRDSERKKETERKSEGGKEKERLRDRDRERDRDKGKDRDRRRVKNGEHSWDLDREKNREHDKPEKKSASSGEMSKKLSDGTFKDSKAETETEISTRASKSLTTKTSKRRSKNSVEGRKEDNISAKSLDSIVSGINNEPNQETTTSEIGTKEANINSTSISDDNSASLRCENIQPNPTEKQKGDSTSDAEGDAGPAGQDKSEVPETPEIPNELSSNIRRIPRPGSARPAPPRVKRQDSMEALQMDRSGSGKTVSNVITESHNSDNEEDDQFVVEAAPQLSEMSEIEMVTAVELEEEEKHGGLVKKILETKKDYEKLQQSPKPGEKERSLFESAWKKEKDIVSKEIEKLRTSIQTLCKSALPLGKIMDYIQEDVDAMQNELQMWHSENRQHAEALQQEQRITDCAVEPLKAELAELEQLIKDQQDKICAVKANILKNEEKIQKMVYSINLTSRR
# UniProt Q15628: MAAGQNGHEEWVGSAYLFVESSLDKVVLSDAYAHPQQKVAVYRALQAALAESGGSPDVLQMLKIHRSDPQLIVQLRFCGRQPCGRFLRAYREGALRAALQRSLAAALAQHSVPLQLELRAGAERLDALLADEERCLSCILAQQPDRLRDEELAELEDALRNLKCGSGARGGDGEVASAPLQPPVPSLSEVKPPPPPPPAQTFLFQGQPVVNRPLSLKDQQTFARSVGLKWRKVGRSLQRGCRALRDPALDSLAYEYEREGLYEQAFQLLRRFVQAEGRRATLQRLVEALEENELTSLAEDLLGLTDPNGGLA
# Compound: CS(=O)(=O)CCNCc1ccc(-c2ccc3ncnc(Nc4ccc(OCc5cccc(F)c5)c(Cl)c4)c3c2)o1 [lapatinib]
# Experiment: log2 fold change, soluble protein after heating vs DMSO (PISA); higher = thermal stabilisation; K562 cells, 10 uM, 30 min; active = over 0.2 and 3.5 SD of the protein, either way, in both replicates (recomputed)
# How it was run: (§1)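 Values are thermal stability changes relative to control samples and are taken from duplicates. They are stated as log2 fold changes. Before quantification by TMTpro 16plex LC-MS/MS with equalised channel sums, K562 cells at 2×10^6 cells/mL were treated with 10 μM compound for 30 min, heated in aliquots for 3 min across 48°C-58°C, pooled, extracted in PBS with 0.5% NP-40 at 4°C, and centrifuged at 21,000xg for 90 min to give the soluble supernatant.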
row,Target,log2 fold change
1,TSC1 (UniProt Q92574),inactive: 0.043
2,TNKS (UniProt O95271),inactive: 0.013
3,TRIM21 (UniProt P19474),inactive: -0.034
4,TRAM2 (UniProt Q15035),inactive: -0.103
5,TNIK isoform 3 (UniProt Q9UKE5),inactive: -0.01
6,TPRG1L (UniProt Q5T0D9),inactive: 0.118
7,TNIP1 (UniProt Q15025),inactive: -0.131
8,TRAPPC2 isoform 3 (UniProt P0DI81),inactive: -0.052
9,TRAPPC6A isoform 2 (UniProt O75865),inactive: 0.13
10,TRMT2B (UniProt Q96GJ1),inactive: -0.03

# Compound: CS(=O)(=O)N1CCN(Cc2cc3nc(-c4cccc5[nH]ncc45)nc(N4CCOCC4)c3s2)CC1 [pictilisib]
# Experiment: as above
# How it was run: as §1
row,Target,log2 fold change
1,TNIK isoform 3 (UniProt Q9UKE5),inactive: -0.005
2,TRIP12 isoform 3 (UniProt Q14669),inactive: -0.087
3,TPD52L2 isoform 3 (UniProt O43399),inactive: 0.499
4,TROAP (UniProt Q12815),inactive: -0.062
5,TRMT5 (UniProt Q32P41),inactive: 0.077
6,TRAPPC2 isoform 3 (UniProt P0DI81),inactive: -0.031
7,TPRA1 (UniProt Q86W33),inactive: -0.13
8,TRMT2B (UniProt Q96GJ1),inactive: 0.033
9,TRIM27 (UniProt P14373),inactive: 0.019

# Compound: CS(=O)(=O)c1ccc(-c2cnc(N)c(C(=O)Nc3ccccc3)n2)cc1
# Experiment: as above
# How it was run: as §1
row,Target,log2 fold change
1,TRIM5 (UniProt Q9C035),inactive: -0.032
2,TRAM2 (UniProt Q15035),inactive: 0.012
3,TPRG1L (UniProt Q5T0D9),inactive: 0.052
4,TNIP1 (UniProt Q15025),inactive: 0.053
5,TRPM4 (UniProt Q8TD43),inactive: -0.001
6,TRIM33 isoform 2 (UniProt Q9UPN9),inactive: -0.086
7,TPRA1 (UniProt Q86W33),inactive: -0.036

# Compound: C[C@@H](Oc1cc(-c2cnn(C3CCNCC3)c2)cnc1N)c1c(Cl)ccc(F)c1Cl [crizotinib]
# Experiment: as above
# How it was run: as §1
row,Target,log2 fold change
1,TRAF3IP1 (UniProt Q8TDR0),inactive: 0.074
2,TRIM65 (UniProt Q6PJ69),inactive: -0.09
3,TSC1 (UniProt Q92574),inactive: 0.035
4,TNKS (UniProt O95271),inactive: -0.081
5,TNIK isoform 3 (UniProt Q9UKE5),inactive: -0.083
6,TNXB isoform 4 (UniProt P22105),inactive: -0.022
7,TRIP12 isoform 3 (UniProt Q14669),inactive: 0.011
8,TRMT5 (UniProt Q32P41),inactive: 0.097
9,TRIT1 (UniProt Q9H3H1),inactive: -0.186

# Compound: C[C@@H]1COCCN1C2=NC(=NC(=C2)C3(CC3)S(=O)(=O)C)C4=C5C=CNC5=CC=C4
# Experiment: as above
# How it was run: as §1
row,Target,log2 fold change
1,TRIM5 (UniProt Q9C035),inactive: 0.037
2,TRADD (UniProt Q15628),inactive: 0.083
3,TPRG1L (UniProt Q5T0D9),inactive: -0.042
4,TNIP1 (UniProt Q15025),inactive: 0.024
5,TRPM4 (UniProt Q8TD43),inactive: 0.19
6,TRIP12 isoform 3 (UniProt Q14669),inactive: -0.022
7,TPD52L2 isoform 3 (UniProt O43399),inactive: 0.547
8,TROAP (UniProt Q12815),inactive: -0.086
9,TRMT5 (UniProt Q32P41),inactive: 0.174
10,TRIM33 isoform 2 (UniProt Q9UPN9),inactive: 0.122
11,TPRA1 (UniProt Q86W33),inactive: 0.213
12,TOR1AIP2 (UniProt Q9H496),inactive: 0.013

# Compound: C[C@H](C1=CC=C(C=C1)C(=O)NC2=C3C=CNC3=NC=C2)N
# Experiment: as above
# How it was run: as §1
row,Target,log2 fold change
1,TRIM5 (UniProt Q9C035),inactive: 0.148
2,TRAF3IP1 (UniProt Q8TDR0),inactive: -0.002
3,TRIM65 (UniProt Q6PJ69),inactive: 0.302
4,TSC1 (UniProt Q92574),inactive: 0.124
5,TRIM21 (UniProt P19474),inactive: 0.209
6,TRAM2 (UniProt Q15035),inactive: -0.019
7,TNIK isoform 3 (UniProt Q9UKE5),inactive: 0.047
8,TRIT1 (UniProt Q9H3H1),inactive: 0.178
9,TRAPPC2 isoform 3 (UniProt P0DI81),inactive: -0.024
10,TRPS1 isoform 2 (UniProt Q9UHF7),inactive: 0.061
11,TRAPPC6A isoform 2 (UniProt O75865),inactive: -0.136
12,TRMT2B (UniProt Q96GJ1),inactive: 0.024

# Compound: C[C@H](Nc1ncnc2nc[nH]c12)c1cc2cccc(Cl)c2c(=O)n1-c1ccccc1 [duvelisib]
# Experiment: as above
# How it was run: as §1
row,Target,log2 fold change
1,TRAF3IP1 (UniProt Q8TDR0),inactive: 0.145
2,TRIM65 (UniProt Q6PJ69),inactive: 0.001
3,TNK2 isoform 3 (UniProt Q07912),inactive: 0.057
4,TSC1 (UniProt Q92574),inactive: 0.16
5,TNKS (UniProt O95271),inactive: -0.244
6,TRIM21 (UniProt P19474),inactive: -0.047
7,TNIK isoform 3 (UniProt Q9UKE5),inactive: 0.07
8,TRADD (UniProt Q15628),inactive: 0.163
9,TRPM4 (UniProt Q8TD43),inactive: -0.151
10,TRIP12 isoform 3 (UniProt Q14669),inactive: -0.11
11,TRAPPC2 isoform 3 (UniProt P0DI81),inactive: 0.03
12,TPD52 isoform 3 (UniProt P55327),inactive: -0.02
13,TRMT2B (UniProt Q96GJ1),inactive: -0.013

# From the supplement of paper PMC10849652
